Reference: patent US20200199541A1, “BLOOD VESSEL ORGANOID, METHODS OF PRODUCING AND USING SAID ORGANOIDS” (IMBA - INSTITUT FÜR MOLEKULARE BIOTECHNOLOGIE GMBH, priority 2017, published 2020)
At least one structure is not confirmed: it was looked up by name or label, or the drawing left a doubt.

Tested on: human blood vessel organoids
Assay: Diabetic basement membrane thickening (Collagen IV) in human blood vessel organoids cultured in diabetic medium
Format: cell-based
Settings: diabetic medium 75 mM Glucose, 1 ng/mL TNFα, 1 ng/mL IL-6; drug doses (DAPT 25 μM)
Experimental: Modeling diabetic vasculopathy in human vascular organoids. Established endothelial networks in vascular organoids were cultured in a non-diabetic control medium (17 mM Glucose) or diabetic medium (75 mM Glucose, in the presence of absence of human TNFα (1 ng/mL, Invitrogen PHC3011) and/or IL-6 (1 ng/mL, Peprotech 200-06)) for up to 3 weeks before the basement membrane was investigated by Collagen type IV immunostaining and electron microscopy. D-Mannitol was used in non-diabetic media to control for hyperosmotic effects. For basement membrane quantifications, acquired z-stacks were analysed and the thickness of ColIV coats around luminal structures were measured using ImageJ software. For drug treatment, organoids were exposed to diabetic medium (75 mM Glucose, 1 ng/mL human TNFα, and 1 ng/mL IL-6) in the presence or absence of the following drugs: 2,4-Thiazolidinedione (5 mM, Abcam ab144811), Metformin (5 mM, Abcam ab120847), Acarbose (80 μg/mL, Sigma A8980), […] (100 μM, Sigma N3538), Diphenyleneiodonium (10 μM), Glimepiride (30 nM, Sigma G2295), Pioglitazone (10 μM, Sigma E6910). […]

Structure (SMILES)	high glucose/TNFα/IL6-induced thickening of the basal blood vessel membrane (Collagen IV)
CCc1ccc(CCOc2ccc(CC3SC(=O)NC3=O)cc2)nc1 (centres unmarked) [pioglitazone, Pioglitazone]	none of the medicines that we tested
C[C@H]1O[C@H](O[C@H]2[C@H](O)[C@@H](O)[C@@H](O[C@H]3[C@H](O)[C@@H](O)C(O)O[C@@H]3CO)O[C@@H]2CO)[C@H](O)[C@@H](O)[C@@H]1N[C@H]1C=C(CO)[C@@H](O)[C@H](O)[C@H]1O (some centres unmarked) [acarbose, Acarbose]	none of the medicines that we tested
